The entries are a selection whose mix differs from that of the whole data set.

Amino acid sequences for entries named in this document (tags omitted). A change or cut given only in a name is not applied to a line headed by its entry.
UniProt P30291: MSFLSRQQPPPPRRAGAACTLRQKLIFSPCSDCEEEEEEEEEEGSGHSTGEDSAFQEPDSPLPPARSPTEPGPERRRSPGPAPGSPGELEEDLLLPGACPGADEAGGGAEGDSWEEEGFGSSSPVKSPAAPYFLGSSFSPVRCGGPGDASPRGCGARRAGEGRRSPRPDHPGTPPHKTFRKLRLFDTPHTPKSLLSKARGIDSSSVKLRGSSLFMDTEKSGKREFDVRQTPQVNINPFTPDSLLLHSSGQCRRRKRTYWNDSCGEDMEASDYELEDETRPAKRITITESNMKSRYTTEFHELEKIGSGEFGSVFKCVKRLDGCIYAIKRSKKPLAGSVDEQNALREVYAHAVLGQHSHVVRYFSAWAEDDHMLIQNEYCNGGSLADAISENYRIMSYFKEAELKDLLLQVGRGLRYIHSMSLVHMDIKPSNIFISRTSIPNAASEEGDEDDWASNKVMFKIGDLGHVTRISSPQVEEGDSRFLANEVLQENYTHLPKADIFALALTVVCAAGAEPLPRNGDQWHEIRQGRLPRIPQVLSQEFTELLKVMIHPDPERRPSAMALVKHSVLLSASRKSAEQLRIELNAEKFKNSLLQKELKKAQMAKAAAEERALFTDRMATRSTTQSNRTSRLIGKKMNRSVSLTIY
UniProt P40855: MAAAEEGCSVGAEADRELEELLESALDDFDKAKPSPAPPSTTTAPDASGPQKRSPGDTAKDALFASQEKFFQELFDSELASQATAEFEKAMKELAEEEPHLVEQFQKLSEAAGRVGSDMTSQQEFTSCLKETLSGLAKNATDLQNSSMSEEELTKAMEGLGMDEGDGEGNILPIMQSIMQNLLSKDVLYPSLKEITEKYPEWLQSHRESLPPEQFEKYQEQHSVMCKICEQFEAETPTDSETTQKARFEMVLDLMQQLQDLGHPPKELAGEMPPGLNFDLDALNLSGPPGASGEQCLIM
UniProt P42771, whole entry: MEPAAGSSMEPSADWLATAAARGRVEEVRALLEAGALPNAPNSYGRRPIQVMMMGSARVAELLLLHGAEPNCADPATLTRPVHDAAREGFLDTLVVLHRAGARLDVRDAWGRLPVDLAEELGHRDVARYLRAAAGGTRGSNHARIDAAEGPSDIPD
UniProt P31943: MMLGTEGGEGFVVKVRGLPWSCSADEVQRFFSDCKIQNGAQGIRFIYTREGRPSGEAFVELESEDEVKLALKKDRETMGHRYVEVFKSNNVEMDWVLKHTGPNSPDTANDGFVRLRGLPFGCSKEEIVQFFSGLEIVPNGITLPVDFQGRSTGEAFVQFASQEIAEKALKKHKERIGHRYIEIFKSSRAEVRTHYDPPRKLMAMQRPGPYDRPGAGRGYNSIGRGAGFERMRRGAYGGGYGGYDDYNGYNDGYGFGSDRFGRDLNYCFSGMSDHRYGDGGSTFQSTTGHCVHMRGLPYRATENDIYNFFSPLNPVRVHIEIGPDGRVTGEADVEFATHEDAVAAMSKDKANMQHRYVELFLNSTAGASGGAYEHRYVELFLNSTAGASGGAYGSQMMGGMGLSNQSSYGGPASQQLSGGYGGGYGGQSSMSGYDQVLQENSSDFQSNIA
UniProt P42356, whole entry, looked up: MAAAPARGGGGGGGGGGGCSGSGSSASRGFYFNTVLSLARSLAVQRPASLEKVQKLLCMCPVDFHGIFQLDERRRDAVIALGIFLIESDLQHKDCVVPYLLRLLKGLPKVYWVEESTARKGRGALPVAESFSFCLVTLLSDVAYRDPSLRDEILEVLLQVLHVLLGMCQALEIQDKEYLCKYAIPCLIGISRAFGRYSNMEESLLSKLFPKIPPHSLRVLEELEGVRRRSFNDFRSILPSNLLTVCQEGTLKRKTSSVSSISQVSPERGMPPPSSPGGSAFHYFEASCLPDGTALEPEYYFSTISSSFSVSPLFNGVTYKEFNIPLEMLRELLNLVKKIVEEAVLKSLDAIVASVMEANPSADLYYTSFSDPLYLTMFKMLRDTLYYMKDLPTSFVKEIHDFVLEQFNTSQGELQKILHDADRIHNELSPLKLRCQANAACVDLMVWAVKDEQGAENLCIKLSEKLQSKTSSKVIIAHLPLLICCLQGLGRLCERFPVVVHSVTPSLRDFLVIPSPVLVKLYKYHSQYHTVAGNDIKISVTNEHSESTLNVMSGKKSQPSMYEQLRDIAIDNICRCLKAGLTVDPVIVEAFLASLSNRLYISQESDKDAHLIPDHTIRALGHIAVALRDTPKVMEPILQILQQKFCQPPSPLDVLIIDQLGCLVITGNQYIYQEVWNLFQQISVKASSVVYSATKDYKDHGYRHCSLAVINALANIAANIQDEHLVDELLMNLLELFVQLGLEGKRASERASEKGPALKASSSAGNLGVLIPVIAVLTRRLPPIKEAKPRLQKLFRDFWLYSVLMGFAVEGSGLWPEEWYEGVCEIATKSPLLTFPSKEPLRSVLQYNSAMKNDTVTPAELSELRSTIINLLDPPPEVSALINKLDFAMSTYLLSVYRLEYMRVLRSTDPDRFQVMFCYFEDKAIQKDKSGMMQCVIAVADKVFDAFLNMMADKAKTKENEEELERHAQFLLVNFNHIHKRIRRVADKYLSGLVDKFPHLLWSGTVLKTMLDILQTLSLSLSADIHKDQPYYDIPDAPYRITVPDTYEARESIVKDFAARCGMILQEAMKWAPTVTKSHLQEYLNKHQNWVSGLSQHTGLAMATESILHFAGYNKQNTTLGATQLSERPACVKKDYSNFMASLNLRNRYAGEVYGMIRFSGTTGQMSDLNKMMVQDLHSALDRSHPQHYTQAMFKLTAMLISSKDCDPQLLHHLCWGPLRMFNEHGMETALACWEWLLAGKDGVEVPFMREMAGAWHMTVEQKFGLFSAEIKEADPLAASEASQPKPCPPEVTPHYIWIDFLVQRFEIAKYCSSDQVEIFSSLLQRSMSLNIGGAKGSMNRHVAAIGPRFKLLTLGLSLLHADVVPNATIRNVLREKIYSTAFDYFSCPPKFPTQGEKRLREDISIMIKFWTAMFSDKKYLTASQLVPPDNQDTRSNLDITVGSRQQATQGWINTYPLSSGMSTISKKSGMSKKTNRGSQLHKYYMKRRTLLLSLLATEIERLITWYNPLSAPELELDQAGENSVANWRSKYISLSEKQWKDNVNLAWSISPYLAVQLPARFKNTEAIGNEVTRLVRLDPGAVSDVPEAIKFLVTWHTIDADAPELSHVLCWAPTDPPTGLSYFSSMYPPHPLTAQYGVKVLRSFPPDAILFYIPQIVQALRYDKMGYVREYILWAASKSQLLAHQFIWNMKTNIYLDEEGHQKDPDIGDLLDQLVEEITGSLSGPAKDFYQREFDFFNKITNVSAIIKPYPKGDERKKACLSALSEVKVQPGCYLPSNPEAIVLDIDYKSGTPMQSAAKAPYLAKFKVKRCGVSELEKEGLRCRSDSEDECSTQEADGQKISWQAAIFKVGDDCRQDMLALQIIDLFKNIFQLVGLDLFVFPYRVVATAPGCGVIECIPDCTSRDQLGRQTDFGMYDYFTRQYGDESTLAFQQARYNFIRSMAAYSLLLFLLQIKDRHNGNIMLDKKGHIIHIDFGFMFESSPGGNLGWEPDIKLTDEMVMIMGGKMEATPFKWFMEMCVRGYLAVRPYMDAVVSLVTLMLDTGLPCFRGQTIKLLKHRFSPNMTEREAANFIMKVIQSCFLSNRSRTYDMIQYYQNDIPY
UniProt P35573: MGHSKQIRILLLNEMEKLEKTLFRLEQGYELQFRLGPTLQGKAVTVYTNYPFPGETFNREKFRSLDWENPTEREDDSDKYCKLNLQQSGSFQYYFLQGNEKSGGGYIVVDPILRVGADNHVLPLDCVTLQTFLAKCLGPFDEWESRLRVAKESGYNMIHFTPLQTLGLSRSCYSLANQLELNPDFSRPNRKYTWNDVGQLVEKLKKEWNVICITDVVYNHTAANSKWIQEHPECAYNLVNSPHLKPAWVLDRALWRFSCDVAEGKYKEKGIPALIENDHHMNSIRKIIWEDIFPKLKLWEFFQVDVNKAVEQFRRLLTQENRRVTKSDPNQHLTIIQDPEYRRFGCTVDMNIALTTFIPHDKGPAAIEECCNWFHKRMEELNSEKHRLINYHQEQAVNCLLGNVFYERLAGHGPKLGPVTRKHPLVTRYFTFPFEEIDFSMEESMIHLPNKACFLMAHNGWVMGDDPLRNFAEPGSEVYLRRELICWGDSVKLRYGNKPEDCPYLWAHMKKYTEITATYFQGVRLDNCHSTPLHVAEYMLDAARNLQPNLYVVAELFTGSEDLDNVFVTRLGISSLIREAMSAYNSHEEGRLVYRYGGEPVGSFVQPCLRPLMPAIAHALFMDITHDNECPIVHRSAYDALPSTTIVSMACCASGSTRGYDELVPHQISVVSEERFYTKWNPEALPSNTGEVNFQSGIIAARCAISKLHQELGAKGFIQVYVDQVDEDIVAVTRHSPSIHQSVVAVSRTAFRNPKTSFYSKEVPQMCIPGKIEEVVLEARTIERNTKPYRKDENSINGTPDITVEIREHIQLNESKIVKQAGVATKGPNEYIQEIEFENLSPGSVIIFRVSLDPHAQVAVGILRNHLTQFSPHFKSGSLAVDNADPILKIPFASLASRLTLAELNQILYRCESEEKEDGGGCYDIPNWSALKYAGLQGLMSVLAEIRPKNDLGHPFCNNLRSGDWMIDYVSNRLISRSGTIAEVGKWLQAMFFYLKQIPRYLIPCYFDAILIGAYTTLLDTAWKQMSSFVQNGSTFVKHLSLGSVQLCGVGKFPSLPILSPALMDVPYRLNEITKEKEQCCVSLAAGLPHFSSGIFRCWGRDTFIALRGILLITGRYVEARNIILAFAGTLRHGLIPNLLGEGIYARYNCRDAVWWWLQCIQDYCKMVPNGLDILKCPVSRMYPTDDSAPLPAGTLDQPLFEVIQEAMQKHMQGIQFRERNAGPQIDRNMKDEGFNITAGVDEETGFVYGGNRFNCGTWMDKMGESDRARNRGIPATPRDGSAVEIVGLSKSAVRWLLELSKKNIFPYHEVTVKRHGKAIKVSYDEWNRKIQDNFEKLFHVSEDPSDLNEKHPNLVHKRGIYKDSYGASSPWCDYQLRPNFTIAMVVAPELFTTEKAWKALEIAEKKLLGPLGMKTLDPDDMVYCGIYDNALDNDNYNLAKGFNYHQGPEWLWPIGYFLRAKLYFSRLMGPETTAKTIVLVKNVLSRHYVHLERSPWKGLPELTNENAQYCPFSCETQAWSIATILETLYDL
UniProt P41250: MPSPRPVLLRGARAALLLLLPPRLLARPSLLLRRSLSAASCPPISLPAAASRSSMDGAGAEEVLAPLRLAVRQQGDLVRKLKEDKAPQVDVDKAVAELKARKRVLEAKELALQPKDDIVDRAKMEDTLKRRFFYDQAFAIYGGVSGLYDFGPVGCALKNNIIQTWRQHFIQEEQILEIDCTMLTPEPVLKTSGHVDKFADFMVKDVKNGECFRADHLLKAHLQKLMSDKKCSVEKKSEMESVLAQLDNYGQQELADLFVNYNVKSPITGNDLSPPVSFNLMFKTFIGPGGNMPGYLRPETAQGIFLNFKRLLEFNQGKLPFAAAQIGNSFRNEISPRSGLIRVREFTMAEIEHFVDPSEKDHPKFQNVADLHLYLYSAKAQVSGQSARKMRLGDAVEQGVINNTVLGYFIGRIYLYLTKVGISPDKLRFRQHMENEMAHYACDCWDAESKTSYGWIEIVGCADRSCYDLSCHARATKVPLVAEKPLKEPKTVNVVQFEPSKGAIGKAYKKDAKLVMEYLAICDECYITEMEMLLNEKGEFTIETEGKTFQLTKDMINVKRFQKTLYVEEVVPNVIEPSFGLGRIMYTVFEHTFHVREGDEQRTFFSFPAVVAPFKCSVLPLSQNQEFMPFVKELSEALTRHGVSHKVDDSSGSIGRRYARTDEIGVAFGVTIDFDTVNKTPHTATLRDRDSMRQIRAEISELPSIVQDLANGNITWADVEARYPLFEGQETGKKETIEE
UniProt P38432, whole entry, looked up: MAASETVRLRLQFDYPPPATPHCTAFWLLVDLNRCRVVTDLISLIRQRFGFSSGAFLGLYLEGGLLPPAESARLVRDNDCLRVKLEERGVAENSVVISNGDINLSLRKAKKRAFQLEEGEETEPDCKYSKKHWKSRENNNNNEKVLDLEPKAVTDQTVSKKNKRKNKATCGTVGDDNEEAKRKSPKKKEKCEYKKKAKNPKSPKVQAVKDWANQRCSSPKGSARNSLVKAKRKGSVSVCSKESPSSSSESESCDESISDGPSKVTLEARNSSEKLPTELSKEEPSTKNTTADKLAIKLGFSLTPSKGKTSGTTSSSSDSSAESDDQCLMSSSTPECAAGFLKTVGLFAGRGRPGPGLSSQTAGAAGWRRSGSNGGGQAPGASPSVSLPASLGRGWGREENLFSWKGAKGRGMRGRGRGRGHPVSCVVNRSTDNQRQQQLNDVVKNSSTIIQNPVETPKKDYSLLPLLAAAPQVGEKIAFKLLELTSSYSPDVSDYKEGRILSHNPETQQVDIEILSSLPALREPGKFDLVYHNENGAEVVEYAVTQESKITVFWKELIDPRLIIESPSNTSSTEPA

Compound in this test: COC(=O)C#Cc1ccccc1 [methyl 3-phenylpropiolate]
Nature of the test: log2 ratio of iodoacetamide-alkyne labeling of the cysteine site, DMSO over compound (competition); higher = stronger covalent engagement of the cysteine by the compound, active = 1 or more. To be noted: 500 µM; treatment time 1 h; system: HEK293T cell lysate. Summed up: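 After 1 h at ambient temperature with vehicle or electrophile (500 µM), HEK293T lysate (2 mg/mL) was labelled for 1 h with iodoacetamide alkyne and clicked to sCIP-TMT reagents. Pooled samples were trypsin-digested overnight at 37 °C, streptavidin-enriched, acid-eluted and analysed by Orbitrap Eclipse LC-MS/MS with FAIMS, then quantified in FragPipe over three replicates with duplicate channels. A cysteine's log2 competition ratio is its mean control-channel over mean compound-channel reporter intensity. Cysteines quantified in only one replicate were not included.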
For the target RPA3 C26 (UniProt P35244), the “log2 ratio of iodoacetamide-alkyne labeling” value (“log2 ratio” below) was inactive: -0.139.
In the case of WEE1 C251 (UniProt P30291) it was inactive: 0.654; in that of UniProt P40855_C128, inactive: 0.285.
UniProt P42771_C72: the “log2 ratio” value is inactive: 0.243.
Consider KIF5B C858 (UniProt P33176), for which the “log2 ratio” value was inactive: 0.167.
Turning to LRPPRC C863 (UniProt P42704), the “log2 ratio” value is inactive: -0.00586.
Consider MATR3 C552 (UniProt P43243), for which the “log2 ratio” value is inactive: 0.21.
In the case of MDH2 C89 (UniProt P40926), the “log2 ratio” value was inactive: 0.21.
On to RFC3 C11 (UniProt P40938), for which the “log2 ratio” value was inactive: 0.16.
Take GTF2H1 C506 (UniProt P32780): the “log2 ratio” value was inactive: 0.367.
With NUP62 C475 (UniProt P37198), the “log2 ratio” value is inactive: 0.206.
Turning to GDI1 C202 (UniProt P31150), the “log2 ratio” value is inactive: 0.0604.
For the target UniProt P36954_C52, the “log2 ratio” value was inactive: 0.245.
With CPOX C239 (UniProt P36551) the figure was inactive: -0.177.
Consider EPS15 C657 (UniProt P42566), for which the “log2 ratio” value is inactive: 0.516.
As for LRPPRC C500 (UniProt P42704), the “log2 ratio” value was inactive: 0.141.
Turning to ALDH1B1 C169 (UniProt P30837), the “log2 ratio” value is inactive: 0.454.
For the target UniProt P42285_C110, the “log2 ratio” value is inactive: -0.148.
In the case of PPP2R1A C390 (UniProt P30153), the “log2 ratio” value is inactive: 0.254.
For HNRNPH1 C34 (UniProt P31943), the “log2 ratio” value is inactive: -0.171.
In the case of UniProt P42356_C246, the “log2 ratio” value was inactive: 0.65.
With AGL C608 (UniProt P35573), the “log2 ratio” value is inactive: 0.194.
For SDHA C266 (UniProt P31040), the “log2 ratio” value was inactive: 0.0962.
As to UniProt P41214_C271, the “log2 ratio” value was inactive: 0.279.
As to MDH2 C285 (UniProt P40926), the “log2 ratio” value is inactive: 0.266.
On to UniProt P41250_C211, for which the “log2 ratio” value was inactive: -0.0782.
Consider ACAA2 C287 (UniProt P42765), for which the “log2 ratio” value was inactive: 0.344.
In the case of UniProt P30520_C18 it was inactive: 0.518.
With RPL4 C125 (UniProt P36578), the “log2 ratio” value was inactive: 0.361.
With SHMT1 C110 (UniProt P34896) the figure was inactive: 0.28.
Take IARS C120 (UniProt P41252): the “log2 ratio” value is inactive: -0.0767.
As to COIL C126 (UniProt P38432), the “log2 ratio” value is inactive: 0.729.
In the case of LRPPRC C571 (UniProt P42704) it was inactive: 0.236.
As to MCM5 C207 (UniProt P33992), the “log2 ratio” value is inactive: 0.811.
With DNAJA1 C149 (UniProt P31689), the “log2 ratio” value was inactive: 0.14.
With RFC1 C607 (UniProt P35251), the “log2 ratio” value was inactive: 0.672.
In the case of NCAPD3 C1389 (UniProt P42695) it was inactive: -0.0173.
